# The supplement of paper PMC10735217
# Where a name gives a salt, the structure may show the parent alone. The list shows a part of the results. Single values are uncertain here, since repeats match poorly.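 The human kidney-derived cells carry a stably integrated construct of eight TEAD-binding elements driving luciferase, read by luminescence in a drug-repurposing library screen. A compound counts as a hit when its signal is more than five robust Z scores above the plate mean.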
# Test system: HEK293A TEAD-LUC reporter
# Assay: TEAD-luciferase reporter activity (YAP activation), robust Z score vs plate; higher = stronger YAP/TEAD activation
# Settings: 24 h
Structure (SMILES),TEAD-luciferase reporter activity (compound concentration: 2 uM),TEAD-luciferase reporter activity (compound concentration: 200 nM),TEAD-luciferase reporter activity (compound concentration: 10 uM)
CN1CCN(C2=Nc3cc(Cl)ccc3Nc3ccccc32)CC1 [clozapine],inactive: -1.62,,
CN1CCN(C2=Nc3cc(Cl)ccc3Nc3ccccc32)CC1,,inactive: 1.13,inactive: -1.35
CC(C)(CN1CCN(C2=Nc3ccccc3Oc3ccccc32)CC1)C(=O)O,inactive: -0.29,inactive: -2.21,inactive: 1.42
Nc1cc(COc2c(Cl)cc(C[C@H](N)C(=O)O)cc2Cl)c2oc(-c3ccccc3)nc2c1 [KYT-0353_:_ JPH203 free base],inactive: 0.941,,
Nc1cc(COc2c(Cl)cc(C[C@H](N)C(=O)O)cc2Cl)c2oc(-c3ccccc3)nc2c1,,inactive: 0.525,inactive: 1.08
CC(C)(C)NCC(O)COc1cccc2c1C[C@H](O)[C@H](O)C2 (some centres undefined),,inactive: -0.327,inactive: -0.0304
"CC(C)(C)NCC(O)COc1cccc2c1C[C@H](O)[C@H](O)C2 (some centres undefined) [nadolol, BMS]",inactive: 0.218,,
COC1(c2cc(F)cc(OCc3ccc4c(ccc(=O)n4C)c3)c2)CCOCC1,inactive: 0.284,inactive: -1.05,inactive: -0.546
CC(=O)N(O)C/C=C/c1cccc(Oc2ccccc2)c1,inactive: -1.37,inactive: 1.07,inactive: 1.17
"NCCC(O)(P(=O)([O-])O)P(=O)([O-])O [pamidronate, Samchundang]",inactive: -0.0446,,
NCCC(O)(P(=O)([O-])O)P(=O)([O-])O [Pamidronate Disodium],,inactive: 0.00745,inactive: 4.1
CC(=O)SCC(Cc1ccc2c(c1)OCO2)C(=O)N[C@@H](C)C(=O)O (some centres undefined),inactive: -0.223,inactive: 2.23,inactive: 1.46
CN(C)CC1CCCN1C(=O)/C=C/c1ccc(C(F)(F)F)cc1 (centres undefined),inactive: -0.606,inactive: 0.582,inactive: -1.74
C=C(C)[C@@H]1CC[C@]2(C(=O)O)CC[C@]3(C)[C@H](CC[C@@H]4[C@@]5(C)CC[C@H](O)C(C)(C)[C@@H]5CC[C@]43C)[C@@H]12 [betulinic acid],inactive: 0.685,,
"C=C(C)[C@@H]1CC[C@]2(C(=O)O)CC[C@]3(C)[C@H](CC[C@@H]4[C@@]5(C)CC[C@H](O)C(C)(C)[C@@H]5CC[C@]43C)[C@@H]12 [betulinic acid, Dabur]",,inactive: -1.95,inactive: 0.837
Cc1ccc(-c2ccc(C)cn2)nc1 [Abametapir],inactive: 0.677,inactive: -0.667,inactive: -0.407
Cn1c(=O)c2c(ncn2C)n(C)c1=O,inactive: -0.777,,
Cn1c(=O)c2c(ncn2C)n(C)c1=O [Caffeine],,inactive: -0.927,inactive: 0.81
CN(C)CCCCCCN(C)C [Hexadimethrine bromide],inactive: -0.722,inactive: -0.566,inactive: -0.519
CN1c2c([nH]c(N)nc2=O)NCC1CNc1ccc(C(=O)N[C@@H](CCC(=O)O)C(=O)O)cc1 (some centres undefined) [Prefolic A],inactive: -1.54,inactive: -1.03,inactive: 1.44
Cc1noc(NS(=O)(=O)c2ccccc2-c2ccc(-c3ncco3)cc2)c1C,inactive: 0.209,inactive: -0.517,inactive: -0.624

Structure (SMILES),TEAD-luciferase reporter activity (compound concentration: 2 uM),TEAD-luciferase reporter activity (compound concentration: 200 nM),TEAD-luciferase reporter activity (compound concentration: 10 uM)
C[C@H]1[C@H](NC(=O)/C(=N\OC(C)(C)C(=O)O)c2csc(N)n2)C(=O)N1S(=O)(=O)O [aztreonam lysine],inactive: -2.2,,
"C[C@H]1[C@H](NC(=O)/C(=N\OC(C)(C)C(=O)O)c2csc(N)n2)C(=O)N1S(=O)(=O)O [aztreonam lysine, Gilead]",,inactive: -1.57,inactive: -1.22
CNC[C@@H]1CC[C@@H](N)[C@@H](O[C@H]2[C@H](O)[C@@H](O[C@H]3OC[C@](C)(O)[C@H](NC)[C@H]3O)[C@H](N)C[C@@H]2N)O1 [Micronomicin sulfate],inactive: 1.24,inactive: -0.461,inactive: -0.53
CC(=O)NC(Cc1ccccc1)C(=O)O (centres undefined),inactive: -1.17,inactive: -1.54,inactive: -0.0166
CC(=O)NCCCC(=O)N1CCC2(CC1)CN(C(C)=O)Cc1ccccc1O2,,inactive: -1.87,inactive: 2.46
CNC(=O)c1cc2c(Oc3ccc(Cl)cc3)cncc2s1,inactive: -1.84,inactive: -1.97,inactive: -1.29
CC1(C(=O)O)CSC(c2ccc(O)cc2O)=N1 (centres undefined),inactive: -0.985,inactive: -0.563,inactive: -0.276
C[C@H]1COc2c(N3CCN(C)CC3)c(F)cc3c(=O)c(C(=O)O)cn1c23,,inactive: -0.823,inactive: -0.0192
C[C@H]1COc2c(N3CCN(C)CC3)c(F)cc3c(=O)c(C(=O)O)cn1c23 [Levofloxacin],inactive: -0.663,,
CC1(C)OC(c2ccc(S(N)(=O)=O)cc2)=C(c2cc(F)ccc2F)C1=O,inactive: 0.395,inactive: -3.65,inactive: 2.77
CS(=O)c1ccc(-c2nc3n(c2-c2ccncc2)CCC3)cc1 (centres undefined),inactive: -0.815,inactive: -1.04,inactive: -1.83
NCc1cccc(C2CCN(C(=O)c3ccc(C#Cc4ccccc4F)o3)CC2)c1,inactive: 2.59,inactive: 0.179,inactive: -0.83
COc1cc2nc(C(C)(C)C)sc2cc1NC(=S)SCCC(=O)O,inactive: -0.988,inactive: -1.43,inactive: 0.809
O=C1C(=O)c2ncccc2-c2cccnc21 [phanqui],inactive: -2.38,,
"O=C1C(=O)c2ncccc2-c2cccnc21 [phanqui, Gerolymatos]",,inactive: 1.17,
"O=C1C(=O)c2ncccc2-c2cccnc21 [phanqui  , Gerolymatos]",,,inactive: 0.278
Cc1cccc(B(O)O)c1C,inactive: -0.203,inactive: 0.102,inactive: -1.17
O=C1COc2ccccc2C(=O)N1CCCCN1CCN(c2ncccn2)CC1,inactive: 0.381,inactive: -1.2,inactive: -2.46
CNS(=O)(=O)Cc1ccc2[nH]cc(CCN(C)C)c2c1 [sumatriptan],inactive: -0.0999,,
CNS(=O)(=O)Cc1ccc2[nH]cc(CCN(C)C)c2c1,,inactive: -1.04,inactive: -1.97
CCOC(=O)c1cn2c(C)c(CC)c(OC)nc2n1,inactive: -0.803,inactive: 0.64,inactive: -0.832

Structure (SMILES),TEAD-luciferase reporter activity (compound concentration: 2 uM),TEAD-luciferase reporter activity (compound concentration: 200 nM),TEAD-luciferase reporter activity (compound concentration: 10 uM)
N[C@@H](CCC(=O)N[C@@H](CS)C(=O)NCC(=O)O)C(=O)O,inactive: -0.572,inactive: 0.834,inactive: 0.95
CC1=C(/C=C/C#Cc2ccc(C(=O)O)cc2)C(C)(C)CCC1,inactive: 1.51,inactive: 0.067,inactive: -1.52
C[C@@H]1COCCN1c1cc(C2([S@](C)(=N)=O)CC2)nc(-c2ccnc3[nH]ccc23)n1,inactive: 0.155,inactive: -0.331,inactive: 1.21
Nc1ccc(/C=C/C(=O)NC[C@@H]2CN(c3ccc(N4CCOCC4)c(F)c3)C(=O)O2)cc1,inactive: 0.923,inactive: 0.74,inactive: 0.545
CCC(c1ccc(O)c(F)c1)C(C)c1ccc(O)c(F)c1 (centres undefined),inactive: -0.268,inactive: -0.837,inactive: 1.26
COc1ccc(C)cc1NC(=O)CCN1CC(N2CCCCC2C)C1 (centres undefined),inactive: -0.888,inactive: 2.81,inactive: -0.726
O=C1NCCN1CCN1CCN(C2C[C@H](c3ccc(F)cc3)c3ccccc32)CC1 (some centres undefined),inactive: -0.41,inactive: -1.2,inactive: 0.934
Cc1noc2c1-c1ccccc1C(c1ccc(Cl)cc1)=N[C@H]2CC(N)=O,inactive: 2.42,inactive: 1.63,inactive: 2.21
CCCN1CCC2(CCN(C(C)=O)CC2)Oc2ccccc21,,inactive: 3,inactive: 0.0877
"CCOc1ccccc1OCC1CNCCO1 (centres undefined) [viloxazine ER, Supernus Pharmaceuticals]",,inactive: 1.63,inactive: -1.48
CCOc1ccccc1OCC1CNCCO1 (centres undefined) [viloxazine ER],inactive: -0.383,,
O=C(NC1CCN(Cc2ccc3c(c2)OCO3)CC1)c1cc(=O)c2cc(F)ccc2o1,inactive: -0.44,inactive: -0.696,inactive: 0.556
Cc1c(Cl)cccc1Nc1ncccc1C(=O)O [lysine clonixinate],inactive: -1.09,inactive: -0.197,inactive: 1.97
COCCOc1ccc(N2CCN(CCn3ncc4c3nc(N)n3nc(-c5ccco5)nc43)CC2)cc1 [Preladenant],inactive: -0.601,inactive: -0.688,inactive: -1.38
CN/C(=N\S(=O)(=O)N1CCCCC1)N1C[C@H](c2ccccc2)C(c2ccc(Cl)cc2)=N1,inactive: -0.125,inactive: 3.05,inactive: 1.28
Cn1cc(O)nc1NC(=O)Nc1cccc(Cl)c1 [fenobam],inactive: -0.386,inactive: 2.26,inactive: 3.63
Nc1nc(=O)c2[nH]cc(Cc3cccnc3)c2[nH]1 [Peldesine],,inactive: -0.471,inactive: -0.0172
COCC(COC)Nc1nc(C)nc2c(-c3ccc(Cl)cc3Cl)c(C)nn12,inactive: -1.34,inactive: -2.24,inactive: -0.403
O=C(O)[C@H](CC(=O)N1C[C@H]2CCCC[C@H]2C1)Cc1ccccc1 [mitiglinide],inactive: 0.699,inactive: -0.782,inactive: 1.22

# A few values from above:
# TEAD-luciferase reporter activity (compound concentration: 2 uM), CCOC(=O)c1cn2c(C)c(CC)c(OC)nc2n1 is entered as inactive: -0.803
# TEAD-luciferase reporter activity (compound concentration: 2 uM), CNC[C@@H]1CC[C@@H](N)[C@@H](O[C@H]2[C@H](O)[C@@H](O[C@H]3OC[C@](C)(O)[C@H](NC)[C@H]3O)[C@H](N)C[C@@H]2N)O1 [Micronomicin sulfate] is entered as inactive: 1.24
# TEAD-luciferase reporter activity (compound concentration: 2 uM), Cc1noc2c1-c1ccccc1C(c1ccc(Cl)cc1)=N[C@H]2CC(N)=O is entered as inactive: 2.42
# TEAD-luciferase reporter activity (compound concentration: 2 uM), CC(C)(C)NCC(O)COc1cccc2c1C[C@H](O)[C@H](O)C2 (some centres undefined) [nadolol, BMS] is entered as inactive: 0.218
